Results from one PubChem assay

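Luminescence from an EWS-FLI1 target-promoter (NR0B1) reporter, set against a CMV-promoter reporter, two days after silencing single genes in TC32 Ewing sarcoma cells.
Each siRNA was applied at 20 nM.
A z-score of the log NR0B1-over-CMV signal, less the median of siRNAs with the same seed; more negative means a stronger specific loss of the NR0B1 reporter.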

This is part of the screen; most of the strongest results are not listed here.
Sequences are the guide (antisense) strand, without overhang.

siRNA | target gene | seed-corrected z-score
UCUUUGACGGAAAACUUGG | GNAT2 | -0.01322
AUUUGGAACAUCCACACUG | LRFN4 | 0.8674
UUCACUGUAAUUCUCACAC | ADAMTSL3 | -0.9325
UCCAUAAUGUCCUUUAUUC | NXPE2 | 1.47
UGUUGGUUUGAACCUGUGG | LOC442132 | 0.79
UACUCUAACAUAUACCGUG | DSG3 | -0.587
ACAGUAAUGGUCCACGUCC | LITAF | 0.08925
UCAUCCAUAUCCUUAAUCU | CHRNA9 | -0.2795
UCUGUGCUAUCUGAGCUGG | COG8 | 0.06865
AUUGUAACAUUAGUUGGUG | IFNGR1 | -0.003644
UAACUGAUGUGACCUCUCC | C2orf68 | -0.09851
GAGUAAGUUGUUCAAACUC | ALG1L | -1.253
AUUCAUUCCAGACUUAAUC | PKM | -0.2211
UCCUUUUACAUUACAAAGU | IMP3 | 0.9688
UCCUUCGUCAGUGAGAUUG | AMN1 | -0.06866
UACCCGAUCUUUUACGUAG | GDI2 | -0.05882
UUCAUGGAAAAAUGCAACC | TRIM51GP | 0.5309
UCUGUUGUAAGCACCGAGG | SLC22A4 | 1.249
UCUCAUACAAAAUGCAUGC | NEK11 | -1.427
AAUGUACUGAUGCCUGUCG | C9orf57 | 1.14
UUUAUUGACAGCACAAGGC | CRIP2 | 0.1208
UCGCUCACAAACUCCUUCC | ARL10 | -0.07416
UAUUGCUUUACUGAGCACU | PTGER4 | -1.324
UCACGAUGAAGACCGGCUC | MEX3D | -0.01702
UCCUCGUUCAUCCUGGUGU | PAK4 | 0.3638
UCAGGGUCUGGUGAGGUCA | PTPN5 | 1.353
AUAGCUGUUAACAAGGUCG | FUCA1 | -1.493
UGGAUAUCCAUCUUGUUCU | MYBPHL | 0.9975
UUCAAAGAAAGUGUAAUUG | MILR1 | 0.08311
UUUGUAGUACCUCCUCUGG | SCD | -0.4933
UUGUCAUCAAAAAUUGUCC | FAM200A | 0.9522
UUCAGCGAUAUGGUGAUCC | GCSAM | -0.8058
UAUAUCACAACAAUAUUCC | TMEM237 | 0.2915
UCAGCUACUUCCAACGUGU | OTUD4 | 0.1014
UUCGUUCACCUGAUAAAGG | PAPD4 | 0.1455
UAUUUUUCUCGCACUCUCG | SFXN1 | -1.531
AAUCUAGACAGAGUCCUUC | CDKN2AIPNL | 0.6792
UUUCUUCAAACUCGGUAAG | REXO1L8P | -1.559
UCUGGUUCAACACUCUAGU | MS4A15 | -0.4558
UGGAUUCUCACAUUUAGCC | IL13RA1 | 0.04759
UACCCGGCUAUAAUCAUAG | PTPN22 | -0.4356
UAGUGUAUCGUAUCUCAUG | TRMT6 | -0.2282
UUUGCAACACGAAUUCUCC | PLXNC1 | 0.7972
UUAUUCUCAGGAGUAUCUC | NDUFV2 | -0.2308
UCUUUGUUCGGGUUCUUCU | EN2 | -0.1947
UCAUUUGACAUAAGGAACU | C10orf76 | 0.8991
ACGUGUAUCUGUGCAGUGC | PCDHGB4 | 0.01099
AAACUUGCAAGAGAUCGCA | MBLAC2 | -0.3662
UAAAGAUAAAGAACCAAUA | KRTAP4-11 | 0.664
UGUGAUCCGGGAGAUAGUG | LDB3 | 0.2792
AUAAGAUACAUAAAGUGCC | LINC01565 | -0.86

Some entries from above, unchanged:

Result for AUAGCUGUUAACAAGGUCG against FUCA1 was seed-corrected z-score -1.493.
Result for ACGUGUAUCUGUGCAGUGC against PCDHGB4 was seed-corrected z-score 0.01099.
Result for UUUCUUCAAACUCGGUAAG against REXO1L8P was seed-corrected z-score -1.559.
Result for UAUUUUUCUCGCACUCUCG against SFXN1 was seed-corrected z-score -1.531.

From PubChem BioAssay record AID1159506 (NCATS, 2015).